Reference: the supplement of paper PMC12067093, “Discovery and optimisation of a covalent ligand for TRIM25 and its application to targeted protein ubiquitination” (Chemical Science, 2025)
This is one part of the list.

The chains behind the UniProt entries cited, without tags or fusion partners. Where a name states a change or a piece, a line headed by the entry shows the natural chain unless it says otherwise.
UniProt P05166: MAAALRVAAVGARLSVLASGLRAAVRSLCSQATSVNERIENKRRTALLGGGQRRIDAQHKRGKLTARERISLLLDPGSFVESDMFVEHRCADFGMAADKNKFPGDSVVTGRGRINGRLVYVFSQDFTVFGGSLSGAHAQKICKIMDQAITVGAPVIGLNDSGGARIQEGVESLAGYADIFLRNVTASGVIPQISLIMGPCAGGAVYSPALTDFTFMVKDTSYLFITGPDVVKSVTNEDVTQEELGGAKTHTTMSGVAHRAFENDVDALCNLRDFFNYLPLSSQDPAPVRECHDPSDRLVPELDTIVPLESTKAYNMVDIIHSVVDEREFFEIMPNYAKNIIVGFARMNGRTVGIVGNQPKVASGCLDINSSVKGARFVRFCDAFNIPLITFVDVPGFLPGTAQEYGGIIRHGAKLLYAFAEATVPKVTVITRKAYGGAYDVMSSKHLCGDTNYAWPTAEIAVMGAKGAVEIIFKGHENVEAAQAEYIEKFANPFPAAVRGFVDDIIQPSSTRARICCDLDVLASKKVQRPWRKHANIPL
UniProt Q96GD0: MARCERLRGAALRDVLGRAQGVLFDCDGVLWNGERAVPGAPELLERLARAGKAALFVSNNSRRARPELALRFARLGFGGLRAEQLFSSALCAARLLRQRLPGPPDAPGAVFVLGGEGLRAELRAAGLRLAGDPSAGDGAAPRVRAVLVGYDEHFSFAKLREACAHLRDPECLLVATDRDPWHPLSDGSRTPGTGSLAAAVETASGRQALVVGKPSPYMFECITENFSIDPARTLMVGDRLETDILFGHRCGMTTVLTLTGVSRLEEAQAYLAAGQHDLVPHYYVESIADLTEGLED
UniProt Q9NR12, whole entry, looked up: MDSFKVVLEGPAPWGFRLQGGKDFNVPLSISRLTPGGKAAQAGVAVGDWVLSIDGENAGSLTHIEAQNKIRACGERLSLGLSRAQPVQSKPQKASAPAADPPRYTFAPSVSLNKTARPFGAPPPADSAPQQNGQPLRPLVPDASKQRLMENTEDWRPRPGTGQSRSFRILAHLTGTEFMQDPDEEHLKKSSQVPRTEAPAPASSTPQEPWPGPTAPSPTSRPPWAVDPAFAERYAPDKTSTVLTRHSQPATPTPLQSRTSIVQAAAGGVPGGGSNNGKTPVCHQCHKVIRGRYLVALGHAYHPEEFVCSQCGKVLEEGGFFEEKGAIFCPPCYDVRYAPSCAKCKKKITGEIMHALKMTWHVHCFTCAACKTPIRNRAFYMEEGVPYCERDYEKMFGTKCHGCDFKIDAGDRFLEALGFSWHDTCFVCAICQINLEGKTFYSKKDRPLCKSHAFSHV
UniProt Q15084: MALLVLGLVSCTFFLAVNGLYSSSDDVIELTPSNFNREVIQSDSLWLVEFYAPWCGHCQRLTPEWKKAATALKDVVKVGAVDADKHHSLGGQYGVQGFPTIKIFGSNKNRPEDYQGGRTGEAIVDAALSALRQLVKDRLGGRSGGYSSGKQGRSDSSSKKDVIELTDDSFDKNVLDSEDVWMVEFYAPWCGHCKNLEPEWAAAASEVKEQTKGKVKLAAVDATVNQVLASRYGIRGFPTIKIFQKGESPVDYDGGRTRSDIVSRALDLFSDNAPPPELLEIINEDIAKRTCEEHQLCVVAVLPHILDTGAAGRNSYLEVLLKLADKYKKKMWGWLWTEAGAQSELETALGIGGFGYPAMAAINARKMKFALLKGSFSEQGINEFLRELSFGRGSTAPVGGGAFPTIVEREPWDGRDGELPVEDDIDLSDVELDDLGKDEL
UniProt P57721, whole entry, looked up: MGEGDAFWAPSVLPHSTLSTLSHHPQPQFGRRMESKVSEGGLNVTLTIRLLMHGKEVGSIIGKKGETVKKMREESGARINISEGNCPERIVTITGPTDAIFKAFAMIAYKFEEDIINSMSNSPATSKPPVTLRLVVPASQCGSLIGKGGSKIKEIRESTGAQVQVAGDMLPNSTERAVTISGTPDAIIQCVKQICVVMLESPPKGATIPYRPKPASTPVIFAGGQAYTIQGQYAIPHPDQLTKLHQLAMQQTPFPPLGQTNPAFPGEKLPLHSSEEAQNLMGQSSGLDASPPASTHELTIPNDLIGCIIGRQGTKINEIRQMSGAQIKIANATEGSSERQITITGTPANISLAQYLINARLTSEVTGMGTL
UniProt O00151: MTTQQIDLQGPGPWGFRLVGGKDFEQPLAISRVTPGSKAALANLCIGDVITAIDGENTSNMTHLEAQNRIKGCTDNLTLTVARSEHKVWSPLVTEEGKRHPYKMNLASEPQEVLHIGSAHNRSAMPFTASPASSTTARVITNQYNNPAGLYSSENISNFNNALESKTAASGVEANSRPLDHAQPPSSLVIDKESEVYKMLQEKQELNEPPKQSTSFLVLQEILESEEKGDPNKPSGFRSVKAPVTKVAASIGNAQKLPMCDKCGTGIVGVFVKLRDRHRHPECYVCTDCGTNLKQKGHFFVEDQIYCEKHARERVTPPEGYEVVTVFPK
UniProt Q15154: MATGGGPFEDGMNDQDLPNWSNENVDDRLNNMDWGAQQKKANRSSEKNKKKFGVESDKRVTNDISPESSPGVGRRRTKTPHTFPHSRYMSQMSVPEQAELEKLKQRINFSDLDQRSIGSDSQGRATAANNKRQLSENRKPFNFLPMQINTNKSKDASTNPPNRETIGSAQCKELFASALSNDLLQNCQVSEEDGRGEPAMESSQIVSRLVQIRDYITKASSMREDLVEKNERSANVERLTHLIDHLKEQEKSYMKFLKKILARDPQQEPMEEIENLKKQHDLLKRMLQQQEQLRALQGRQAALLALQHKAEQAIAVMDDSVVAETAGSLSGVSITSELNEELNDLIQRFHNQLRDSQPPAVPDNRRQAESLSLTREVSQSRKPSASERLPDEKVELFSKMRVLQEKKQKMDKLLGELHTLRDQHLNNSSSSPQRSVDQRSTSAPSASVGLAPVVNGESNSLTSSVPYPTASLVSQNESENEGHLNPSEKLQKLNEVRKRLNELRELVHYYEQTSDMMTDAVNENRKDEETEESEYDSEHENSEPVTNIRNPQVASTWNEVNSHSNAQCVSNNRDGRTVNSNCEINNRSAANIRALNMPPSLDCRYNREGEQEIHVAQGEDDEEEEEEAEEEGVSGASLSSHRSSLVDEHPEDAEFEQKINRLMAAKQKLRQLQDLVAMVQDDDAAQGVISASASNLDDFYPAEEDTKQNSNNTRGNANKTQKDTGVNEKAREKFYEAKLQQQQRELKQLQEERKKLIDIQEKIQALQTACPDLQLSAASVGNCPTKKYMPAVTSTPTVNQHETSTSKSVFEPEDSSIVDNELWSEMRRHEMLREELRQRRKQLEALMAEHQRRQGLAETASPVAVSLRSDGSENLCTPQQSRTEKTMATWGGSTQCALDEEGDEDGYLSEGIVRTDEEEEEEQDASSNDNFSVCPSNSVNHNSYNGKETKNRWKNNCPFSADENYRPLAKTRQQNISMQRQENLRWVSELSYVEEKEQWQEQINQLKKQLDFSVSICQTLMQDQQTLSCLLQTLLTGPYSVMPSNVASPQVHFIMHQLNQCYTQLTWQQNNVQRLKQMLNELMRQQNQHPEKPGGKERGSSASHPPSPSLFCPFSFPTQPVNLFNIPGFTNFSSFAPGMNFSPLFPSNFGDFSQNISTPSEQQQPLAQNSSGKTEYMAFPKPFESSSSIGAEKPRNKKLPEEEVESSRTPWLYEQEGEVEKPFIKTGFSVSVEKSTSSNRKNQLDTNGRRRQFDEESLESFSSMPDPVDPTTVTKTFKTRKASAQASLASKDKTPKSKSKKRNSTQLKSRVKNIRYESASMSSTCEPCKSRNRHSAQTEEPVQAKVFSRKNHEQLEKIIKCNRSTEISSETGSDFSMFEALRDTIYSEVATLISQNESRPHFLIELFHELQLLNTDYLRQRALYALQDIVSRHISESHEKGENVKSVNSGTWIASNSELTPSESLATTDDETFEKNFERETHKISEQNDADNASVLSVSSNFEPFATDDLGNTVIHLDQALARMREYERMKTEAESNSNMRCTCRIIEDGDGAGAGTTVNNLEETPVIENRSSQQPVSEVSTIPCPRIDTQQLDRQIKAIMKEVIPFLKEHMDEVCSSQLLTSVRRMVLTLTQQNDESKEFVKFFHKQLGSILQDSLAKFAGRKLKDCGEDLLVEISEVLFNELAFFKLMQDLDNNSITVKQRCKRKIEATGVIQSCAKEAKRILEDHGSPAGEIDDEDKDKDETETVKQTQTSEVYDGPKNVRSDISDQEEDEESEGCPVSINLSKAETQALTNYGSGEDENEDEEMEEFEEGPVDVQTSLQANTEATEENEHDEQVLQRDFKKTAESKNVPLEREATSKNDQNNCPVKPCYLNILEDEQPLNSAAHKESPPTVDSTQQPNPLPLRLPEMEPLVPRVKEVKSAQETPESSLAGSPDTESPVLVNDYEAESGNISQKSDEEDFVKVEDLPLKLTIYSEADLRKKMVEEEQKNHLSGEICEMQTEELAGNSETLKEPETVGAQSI
UniProt Q14554: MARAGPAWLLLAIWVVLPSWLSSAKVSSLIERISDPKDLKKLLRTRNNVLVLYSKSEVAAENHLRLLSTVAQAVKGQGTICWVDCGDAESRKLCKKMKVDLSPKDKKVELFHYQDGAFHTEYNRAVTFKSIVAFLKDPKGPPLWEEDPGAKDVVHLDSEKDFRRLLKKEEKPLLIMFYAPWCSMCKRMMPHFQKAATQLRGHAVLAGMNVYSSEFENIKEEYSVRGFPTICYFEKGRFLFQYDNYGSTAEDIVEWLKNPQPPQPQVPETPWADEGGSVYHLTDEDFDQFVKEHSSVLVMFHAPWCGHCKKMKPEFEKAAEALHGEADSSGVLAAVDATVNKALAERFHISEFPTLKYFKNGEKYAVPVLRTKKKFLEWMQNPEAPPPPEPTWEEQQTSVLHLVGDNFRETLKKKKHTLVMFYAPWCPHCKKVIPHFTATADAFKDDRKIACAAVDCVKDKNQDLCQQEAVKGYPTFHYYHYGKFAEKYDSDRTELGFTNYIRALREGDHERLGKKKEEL
UniProt P30101, whole entry, looked up: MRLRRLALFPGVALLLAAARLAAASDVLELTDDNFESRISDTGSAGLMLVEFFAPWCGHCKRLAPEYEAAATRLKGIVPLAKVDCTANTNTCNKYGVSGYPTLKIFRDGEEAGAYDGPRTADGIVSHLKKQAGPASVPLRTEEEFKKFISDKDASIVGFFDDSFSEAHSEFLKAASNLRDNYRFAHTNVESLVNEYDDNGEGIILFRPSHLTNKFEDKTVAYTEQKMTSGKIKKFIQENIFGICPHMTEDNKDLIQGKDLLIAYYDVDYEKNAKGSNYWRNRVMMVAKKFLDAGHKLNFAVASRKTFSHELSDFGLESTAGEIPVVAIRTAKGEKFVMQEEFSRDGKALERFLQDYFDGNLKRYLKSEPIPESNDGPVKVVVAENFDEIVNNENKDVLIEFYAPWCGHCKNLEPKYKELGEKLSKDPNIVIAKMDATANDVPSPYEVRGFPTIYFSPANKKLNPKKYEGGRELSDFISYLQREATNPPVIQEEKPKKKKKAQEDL
UniProt Q13370: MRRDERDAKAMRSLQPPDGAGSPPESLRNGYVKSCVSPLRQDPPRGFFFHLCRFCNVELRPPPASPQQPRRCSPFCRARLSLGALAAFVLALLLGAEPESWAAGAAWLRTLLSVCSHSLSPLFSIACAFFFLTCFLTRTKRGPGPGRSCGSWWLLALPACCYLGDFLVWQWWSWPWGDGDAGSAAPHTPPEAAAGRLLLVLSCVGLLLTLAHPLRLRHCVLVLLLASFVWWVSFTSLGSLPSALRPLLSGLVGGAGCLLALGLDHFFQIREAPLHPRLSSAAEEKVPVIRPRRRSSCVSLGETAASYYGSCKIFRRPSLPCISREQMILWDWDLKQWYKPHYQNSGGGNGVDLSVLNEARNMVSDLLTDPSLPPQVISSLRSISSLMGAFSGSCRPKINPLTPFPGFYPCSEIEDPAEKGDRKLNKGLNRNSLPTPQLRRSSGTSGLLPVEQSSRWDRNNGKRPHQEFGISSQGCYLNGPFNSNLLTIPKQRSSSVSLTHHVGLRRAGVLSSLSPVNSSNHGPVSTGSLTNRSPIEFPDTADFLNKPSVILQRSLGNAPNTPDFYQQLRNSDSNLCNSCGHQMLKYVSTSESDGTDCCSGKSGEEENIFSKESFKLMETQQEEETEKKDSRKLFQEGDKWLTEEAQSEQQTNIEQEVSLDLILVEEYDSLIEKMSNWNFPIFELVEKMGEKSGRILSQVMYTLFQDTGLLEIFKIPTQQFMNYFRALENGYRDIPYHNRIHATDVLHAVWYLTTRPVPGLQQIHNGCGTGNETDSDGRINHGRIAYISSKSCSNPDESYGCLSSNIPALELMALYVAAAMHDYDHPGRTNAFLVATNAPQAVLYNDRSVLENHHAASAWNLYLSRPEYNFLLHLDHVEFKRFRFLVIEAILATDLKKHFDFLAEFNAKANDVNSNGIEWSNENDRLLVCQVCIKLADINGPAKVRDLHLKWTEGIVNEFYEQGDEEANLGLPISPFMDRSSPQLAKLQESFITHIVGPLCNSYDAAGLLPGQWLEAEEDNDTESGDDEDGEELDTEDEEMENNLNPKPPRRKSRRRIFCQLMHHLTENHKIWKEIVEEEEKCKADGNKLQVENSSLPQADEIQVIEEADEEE

Compound: Cc1cc(ccc1-c1ccccc1)C(=O)N1CCCN(CC1)C(=O)CCl [compound 10]
Assay: probe-labelled cysteine peptide fold change vs DMSO (competition) (log2 fold change); higher = less target engagement (more negative = stronger competition)
Conditions: THP-1, incubation time: 4 h
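Further: competitive profiling in live THP-1 cells: cysteine peptides tagged with an iodoacetamide desthiobiotin (IA-DTB) probe, intensity after compound treatment relative to DMSO-treated cells.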

| Target | probe-labelled cysteine peptide fold change (10 µM) | probe-labelled cysteine peptide fold change (50 µM) |
| --- | --- | --- |
| PDF_Q9HBH1_132_QVLALELPEALCR (UniProt Q9HBH1) | 0.151 | 0.278 |
| PCCB_P05166_448_HLCGDTNYAWPTAEIAVMGAK (UniProt P05166) | -0.00636 | -0.152 |
| PDXP_Q96GD0_91_AEQLFSSALCAAR (UniProt Q96GD0) | -0.097 | -0.0191 |
| PDLIM7_Q9NR12_285_TPVCHQCHK (UniProt Q9NR12) | 0.0922 | -0.0628 |
| PDS5A_Q29RF7_350_FASHCLMNHPDLAK (UniProt Q29RF7) | -0.0425 | -0.219 |
| PCCB_P05166_291_ECHDPSDRLVPELDTIVPLESTK (UniProt P05166) | -0.466 | -0.0906 |
| PDLIM4_P50479_72_GCHDHLTLSVSRPEGR (UniProt P50479) | 0.599 | -0.181 |
| PDLIM7_Q9NR12_388_AFYMEEGVPYCER (UniProt Q9NR12) | -0.17 | -0.159 |
| PDIA6_Q15084_55_EVIQSDSLWLVEFYAPWCGHCQR (UniProt Q15084) | -0.183 | -0.44 |
| PAXBP1_Q9Y5B6_457_GYVQDLLECFSEK (UniProt Q9Y5B6) | 0.252 | 0.00768 |
| PDXP_Q96GD0_171_DPECLLVATDRDPWHPLSDGSR (UniProt Q96GD0) | -0.0117 | 0.321 |
| PCBP3_P57721_86_INISEGNCPER (UniProt P57721) | -0.122 | -0.352 |
| PCID2_Q5JVF3_148_AAELLMSCFR (UniProt Q5JVF3) | 0.362 | 0.294 |
| PDIA6_Q15084_297_RTCEEHQLCVVAVLPHILDTGAAGR (UniProt Q15084) | -0.00692 | -0.143 |
| PDLIM7_Q9NR12_370_MTWHVHCFTCAACK (UniProt Q9NR12) | 0.00418 | 0.0798 |
| PDE12_Q6L8Q7_180_YIMAGFPVCPK (UniProt Q6L8Q7) | -0.0396 | -0.16 |
| PDLIM1_O00151_307_GHFFVEDQIYCEK (UniProt O00151) | -0.0541 | -0.017 |
| PCM1_Q15154_1616_EHMDEVCSSQLLTSVRR (UniProt Q15154) | 0.136 | -0.639 |

| Target | probe-labelled cysteine peptide fold change (10 µM) | probe-labelled cysteine peptide fold change (50 µM) |
| --- | --- | --- |
| PDIA5_Q14554_465_NQDLCQQEAVK (UniProt Q14554) | -0.225 | -0.137 |
| PDIA3_P30101_85_VDCTANTNTCNK (UniProt P30101) | -0.0212 | -0.0482 |
| PCCA_P05165_363_LQVEHPVTECITGLDLVQEMIR (UniProt P05165) | 0.011 | 0.316 |
| PDCD11_Q14690_333_ACILCVHPR (UniProt Q14690) | -0.105 | -0.399 |
| PDIA6_Q15084_297_TCEEHQLCVVAVLPHILDTGAAGR (UniProt Q15084) | 0.011 | -0.0194 |
| PDLIM2_Q96JY6_160_SFQSLACSPGLPAADR (UniProt Q96JY6) | -0.216 | -0.343 |
| PCBD2_Q9H0N5_109_VQITLTSHDCGELTKK (UniProt Q9H0N5) | 0.133 | -0.439 |
| PDLIM1_O00151_263_CGTGIVGVFVK (UniProt O00151) | 0.0159 | -0.62 |
| PCLAF_Q15004_99_ACPLQPDHTNDEKE (UniProt Q15004) | 0.0965 | -0.832 |
| PCBP3_P57721_141_LVVPASQCGSLIGK (UniProt P57721) | -0.227 | -0.208 |
| PAXX_Q9BUH6_24_FVCYCEGEESGEGDR (UniProt Q9BUH6) | -0.0295 | 0.106 |
| PDIA5_Q14554_81_GQGTICWVDCGDAESR (UniProt Q14554) | -0.0401 | 0.0612 |
| PDE3B_Q13370_1059_IFCQLMHHLTENHK (UniProt Q13370) | -0.354 | -0.491 |
| PDHA1_P08559_261_RGDFIPGLRVDGMDILCVR (UniProt P08559) | -0.351 | -0.614 |
| PEAK3_Q6ZS72_107_SQAAVGPACLPAELTFGPADAPLGLSLR (UniProt Q6ZS72) | -0.373 | -0.749 |
| PCM1_Q15154_582_TVNSNCEINNR (UniProt Q15154) | -0.438 | -0.271 |
| PDIA3_P30101_92_VDCTANTNTCNK (UniProt P30101) | 0.0862 | 0.179 |
| PCBP1_Q15365_194_VMTIPYQPMPASSPVICAGGQDR (UniProt Q15365) | 0.168 | 0.0443 |

2 neighbouring records out of the list so far, for reference:

| Target | probe-labelled cysteine peptide fold change (10 µM) | probe-labelled cysteine peptide fold change (50 µM) |
| --- | --- | --- |
| PDIA5_Q14554_81_GQGTICWVDCGDAESR (UniProt Q14554) | -0.0401 | 0.0612 |
| PDE3B_Q13370_1059_IFCQLMHHLTENHK (UniProt Q13370) | -0.354 | -0.491 |
